Reference: publication PMC7761120

By UniProt entry, the sequences of proteins in these tests, tags left out.
UniProt P21333: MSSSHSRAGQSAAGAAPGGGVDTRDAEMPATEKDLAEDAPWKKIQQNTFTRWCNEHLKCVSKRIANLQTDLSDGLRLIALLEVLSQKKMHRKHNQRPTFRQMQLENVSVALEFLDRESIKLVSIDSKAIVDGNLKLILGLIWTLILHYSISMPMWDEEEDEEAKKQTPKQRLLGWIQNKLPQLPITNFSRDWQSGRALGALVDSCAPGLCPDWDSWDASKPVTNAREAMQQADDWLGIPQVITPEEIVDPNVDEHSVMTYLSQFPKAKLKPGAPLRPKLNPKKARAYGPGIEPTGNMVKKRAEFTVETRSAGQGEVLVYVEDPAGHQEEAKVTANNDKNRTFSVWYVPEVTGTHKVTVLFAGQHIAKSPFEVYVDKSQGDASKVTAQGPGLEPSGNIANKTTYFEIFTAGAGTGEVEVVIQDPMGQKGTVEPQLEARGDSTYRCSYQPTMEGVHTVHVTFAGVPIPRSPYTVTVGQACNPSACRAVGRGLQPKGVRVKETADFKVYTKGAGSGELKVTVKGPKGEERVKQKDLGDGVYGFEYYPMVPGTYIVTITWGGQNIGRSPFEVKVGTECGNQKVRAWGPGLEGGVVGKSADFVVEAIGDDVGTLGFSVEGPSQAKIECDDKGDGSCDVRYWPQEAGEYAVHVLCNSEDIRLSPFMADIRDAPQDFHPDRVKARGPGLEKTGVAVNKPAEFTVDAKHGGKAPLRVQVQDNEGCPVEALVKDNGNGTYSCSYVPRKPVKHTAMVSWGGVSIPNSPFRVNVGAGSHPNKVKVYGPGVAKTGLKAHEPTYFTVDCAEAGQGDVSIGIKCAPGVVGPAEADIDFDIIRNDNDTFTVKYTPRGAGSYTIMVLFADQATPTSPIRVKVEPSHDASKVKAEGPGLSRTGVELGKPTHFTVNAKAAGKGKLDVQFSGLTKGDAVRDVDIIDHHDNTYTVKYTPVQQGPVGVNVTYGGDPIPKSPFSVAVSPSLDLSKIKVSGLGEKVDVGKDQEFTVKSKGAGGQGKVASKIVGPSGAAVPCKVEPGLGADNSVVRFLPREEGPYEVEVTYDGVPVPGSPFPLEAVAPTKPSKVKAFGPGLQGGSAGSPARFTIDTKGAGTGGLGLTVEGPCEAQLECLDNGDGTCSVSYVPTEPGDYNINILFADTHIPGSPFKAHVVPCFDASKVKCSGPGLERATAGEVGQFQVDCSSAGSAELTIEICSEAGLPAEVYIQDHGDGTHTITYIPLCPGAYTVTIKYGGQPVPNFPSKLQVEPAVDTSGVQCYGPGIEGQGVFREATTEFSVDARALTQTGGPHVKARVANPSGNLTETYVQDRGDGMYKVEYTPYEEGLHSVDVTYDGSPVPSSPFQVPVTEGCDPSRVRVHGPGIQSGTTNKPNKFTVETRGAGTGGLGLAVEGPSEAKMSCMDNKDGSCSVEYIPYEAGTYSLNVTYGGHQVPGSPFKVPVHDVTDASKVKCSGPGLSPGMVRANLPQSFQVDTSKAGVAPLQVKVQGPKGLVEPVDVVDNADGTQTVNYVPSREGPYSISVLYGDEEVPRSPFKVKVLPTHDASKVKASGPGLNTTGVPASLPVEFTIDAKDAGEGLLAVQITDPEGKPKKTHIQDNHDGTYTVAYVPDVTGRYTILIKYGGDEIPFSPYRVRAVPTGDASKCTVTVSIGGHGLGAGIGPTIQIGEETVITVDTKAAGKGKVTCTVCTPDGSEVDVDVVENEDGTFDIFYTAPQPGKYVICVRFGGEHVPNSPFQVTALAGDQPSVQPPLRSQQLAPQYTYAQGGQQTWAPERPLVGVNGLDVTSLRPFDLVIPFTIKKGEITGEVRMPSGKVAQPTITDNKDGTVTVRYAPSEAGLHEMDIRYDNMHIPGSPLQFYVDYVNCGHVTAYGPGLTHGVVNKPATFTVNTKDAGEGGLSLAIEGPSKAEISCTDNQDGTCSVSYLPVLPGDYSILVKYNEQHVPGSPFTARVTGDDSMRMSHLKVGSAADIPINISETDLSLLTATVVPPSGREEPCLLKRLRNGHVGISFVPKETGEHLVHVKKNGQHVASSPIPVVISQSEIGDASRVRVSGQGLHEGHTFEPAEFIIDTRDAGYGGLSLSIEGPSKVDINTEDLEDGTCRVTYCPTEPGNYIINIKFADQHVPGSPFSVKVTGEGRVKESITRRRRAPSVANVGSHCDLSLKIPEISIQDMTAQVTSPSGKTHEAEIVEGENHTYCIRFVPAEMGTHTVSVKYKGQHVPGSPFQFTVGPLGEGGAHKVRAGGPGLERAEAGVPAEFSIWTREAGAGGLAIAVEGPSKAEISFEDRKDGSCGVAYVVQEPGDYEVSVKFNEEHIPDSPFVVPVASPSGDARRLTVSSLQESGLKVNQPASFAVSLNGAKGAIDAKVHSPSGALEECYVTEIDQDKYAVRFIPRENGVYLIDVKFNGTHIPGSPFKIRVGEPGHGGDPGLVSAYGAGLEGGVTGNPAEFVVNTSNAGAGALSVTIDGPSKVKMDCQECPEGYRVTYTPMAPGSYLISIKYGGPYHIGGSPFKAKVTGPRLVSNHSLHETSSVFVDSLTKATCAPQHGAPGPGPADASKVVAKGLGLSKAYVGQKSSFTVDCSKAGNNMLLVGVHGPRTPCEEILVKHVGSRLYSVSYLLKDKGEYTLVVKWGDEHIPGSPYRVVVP
UniProt P23528: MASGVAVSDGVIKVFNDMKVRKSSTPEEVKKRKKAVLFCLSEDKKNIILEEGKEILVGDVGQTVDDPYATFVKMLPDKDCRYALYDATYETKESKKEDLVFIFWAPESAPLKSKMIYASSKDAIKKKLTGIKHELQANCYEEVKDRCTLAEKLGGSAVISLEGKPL
UniProt P15311: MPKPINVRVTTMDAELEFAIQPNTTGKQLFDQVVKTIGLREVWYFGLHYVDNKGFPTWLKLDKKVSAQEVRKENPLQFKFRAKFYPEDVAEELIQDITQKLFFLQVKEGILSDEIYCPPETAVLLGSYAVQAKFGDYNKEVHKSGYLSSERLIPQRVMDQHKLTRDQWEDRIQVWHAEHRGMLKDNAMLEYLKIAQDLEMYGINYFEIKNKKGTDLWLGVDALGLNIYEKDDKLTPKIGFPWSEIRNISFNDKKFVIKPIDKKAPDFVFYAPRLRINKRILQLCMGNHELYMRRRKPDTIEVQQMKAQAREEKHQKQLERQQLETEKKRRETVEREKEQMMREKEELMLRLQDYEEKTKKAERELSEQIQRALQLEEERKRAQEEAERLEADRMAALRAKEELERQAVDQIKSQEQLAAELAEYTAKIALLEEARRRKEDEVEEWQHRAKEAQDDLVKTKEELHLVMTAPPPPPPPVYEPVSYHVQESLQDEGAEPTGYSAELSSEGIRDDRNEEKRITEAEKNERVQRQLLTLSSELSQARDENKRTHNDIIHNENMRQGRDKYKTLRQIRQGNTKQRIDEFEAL
UniProt Q9Y265: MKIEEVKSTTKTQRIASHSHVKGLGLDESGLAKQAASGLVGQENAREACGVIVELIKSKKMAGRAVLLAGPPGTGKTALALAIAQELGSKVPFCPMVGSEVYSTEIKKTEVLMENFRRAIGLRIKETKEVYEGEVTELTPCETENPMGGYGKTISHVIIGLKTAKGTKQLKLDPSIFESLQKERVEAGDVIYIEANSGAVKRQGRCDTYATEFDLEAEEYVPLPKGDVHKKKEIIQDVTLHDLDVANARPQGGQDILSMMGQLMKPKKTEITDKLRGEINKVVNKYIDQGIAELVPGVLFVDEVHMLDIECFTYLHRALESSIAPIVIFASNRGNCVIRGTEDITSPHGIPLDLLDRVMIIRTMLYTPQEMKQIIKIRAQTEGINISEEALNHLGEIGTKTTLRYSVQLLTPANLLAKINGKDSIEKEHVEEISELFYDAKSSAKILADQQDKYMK

Biological target: Filamin A (human (endogenous in TCam-2)) (UniProt P21333)
Assay: affinity purification with mass spectrometry; immunoprecipitation from TCam-2 total protein lysate (RIPA buffer with protease inhibitor mix) with FLNA-specific antibodies (serum) on Protein G Sepharose beads, 4 °C for 90 min; beads washed, digested on the bead with trypsin, LC-MS/MS; performed three times

Row | Molecule | binding
1 | Cofilin-1 (from UniProt P23528 1-166) | binds
2 | Epiplakin (from UniProt P58107 1-5088) | binds
3 | Ezrin (from UniProt P15311 1-586) | binds
4 | RuvB-like 1 (from UniProt Q9Y265 1-456) | binds
5 | Zyxin (protein, UniProt Q15942 1-572) MAAPRPSPAISVSVSAPAFYAPQKKFGPVVAPKPKVNPFRPGDSEPPPAPGAQRAQMGRVGEIPPPPPEDFPLPPPPLAGDGDDAEGALGGAFPPPPPPIEESFPPAPLEEEIFPSPPPPPEEEGGPEAPIPPPPQPREKVSSIDLEIDSLSSLLDDMTKNDPFKARVSSGYVPPPVATPFSSKSSTKPAAGGTAPLPPWKSPSSSQPLPQVPAPAQSQTQFHVQPQPQPKPQVQLHVQSQTQPVSLANTQPRGPPASSPAPAPKFSPVTPKFTPVASKFSPGAPGGSGSQPNQKLGHPEALSAGTGSPQPPSFTYAQQREKPRVQEKQHPVPPPAQNQNQVRSPGAPGPLTLKEVEELEQLTQQLMQDMEHPQRQNVAVNELCGRCHQPLARAQPAVRALGQLFHIACFTCHQCAQQLQGQQFYSLEGAPYCEGCYTDTLEKCNTCGEPITDRMLRATGKAYHPHCFTCVVCARPLEGTSFIVDQANRPHCVPDYHKQYAPRCSVCSEPIMPEPGRDETVRVVALDKNFHMKCYKCEDCGKPLSIEADDNGCFPLDGHVLCRKCHTARAQT | binds
6 | Ladinin-1 (protein, UniProt O00515 1-517) MAVSRKDWSALSSLARQRTLEDEEEQERERRRRHRNLSSTTDDEAPRLSQNGDRQASASERLPSVEEAEVPKPLPPASKDEDEDIQSILRTRQERRQRRQVVEAAQAPIQERLEAEEGRNSLSPVQATQKPLVSKKELEIPPRRRLSREQRGPWALEEESLVGREPEERKKGVPEKSPVLEKSSMPKKTAPEKSLVSDKTSISEKVLASEKTSLSEKIAVSEKRNSSEKKSVLEKTSVSEKSLAPGMALGSGRRLVSEKASIFEKALASEKSPTADAKPAPKRATASEQPLAQEPPASGGSPATTKEQRGRALPGKNLPSLAKQGASDPPTVASRLPPVTLQVKIPSKEEEADMSSPTQRTYSSSLKRSSPRTISFRMKPKKENSETTLTRSASMKLPDNTVKLGEKLERYHTAIRRSESVKSRGLPCTELFVAPVGVASKRHLFEKELAGQSRAEPASSRKENLRLSGVVTSRLNLWISRTQESGDQDPQEAQKASSATERTQWGQKSDSSLDAEV | binds
7 | DAZ-associated protein 1 (protein, UniProt Q96EP5 1-407) MNNSGADEIGKLFVGGLDWSTTQETLRSYFSQYGEVVDCVIMKDKTTNQSRGFGFVKFKDPNCVGTVLASRPHTLDGRNIDPKPCTPRGMQPERTRPKEGWQKGPRSDNSKSNKIFVGGIPHNCGETELREYFKKFGVVTEVVMIYDAEKQRPRGFGFITFEDEQSVDQAVNMHFHDIMGKKVEVKRAEPRDSKSQAPGQPGASQWGSRVVPNAANGWAGQPPPTWQQGYGPQGMWVPAGQAIGGYGPPPAGRGAPPPPPPFTSYIVSTPPGGFPPPQGFPQGYGAPPQFSFGYGPPPPPPDQFAPPGVPPPPATPGAAPLAFPPPPSQAAPDMSKPPTAQPDFPYGQYAGYGQDLSGFGQGFSDPSQQPPSYGGPSVPGSGGPPAGGSGFGRGQNHNVQGFHPYRR | binds

Results are given in words; binding and its absence hold for the method and conditions named. Binding seen in cells or lysates may run through a third protein. These calls come from enrichment with a bait or labelling near it, and not all partners need be listed.
